Results on three substances are retold here after PMC7296666.

Sequences of proteins named here, by UniProt entry; tags and fusion partners are left off. Residues count along the entry.
UniProt P40189, residues 23-918: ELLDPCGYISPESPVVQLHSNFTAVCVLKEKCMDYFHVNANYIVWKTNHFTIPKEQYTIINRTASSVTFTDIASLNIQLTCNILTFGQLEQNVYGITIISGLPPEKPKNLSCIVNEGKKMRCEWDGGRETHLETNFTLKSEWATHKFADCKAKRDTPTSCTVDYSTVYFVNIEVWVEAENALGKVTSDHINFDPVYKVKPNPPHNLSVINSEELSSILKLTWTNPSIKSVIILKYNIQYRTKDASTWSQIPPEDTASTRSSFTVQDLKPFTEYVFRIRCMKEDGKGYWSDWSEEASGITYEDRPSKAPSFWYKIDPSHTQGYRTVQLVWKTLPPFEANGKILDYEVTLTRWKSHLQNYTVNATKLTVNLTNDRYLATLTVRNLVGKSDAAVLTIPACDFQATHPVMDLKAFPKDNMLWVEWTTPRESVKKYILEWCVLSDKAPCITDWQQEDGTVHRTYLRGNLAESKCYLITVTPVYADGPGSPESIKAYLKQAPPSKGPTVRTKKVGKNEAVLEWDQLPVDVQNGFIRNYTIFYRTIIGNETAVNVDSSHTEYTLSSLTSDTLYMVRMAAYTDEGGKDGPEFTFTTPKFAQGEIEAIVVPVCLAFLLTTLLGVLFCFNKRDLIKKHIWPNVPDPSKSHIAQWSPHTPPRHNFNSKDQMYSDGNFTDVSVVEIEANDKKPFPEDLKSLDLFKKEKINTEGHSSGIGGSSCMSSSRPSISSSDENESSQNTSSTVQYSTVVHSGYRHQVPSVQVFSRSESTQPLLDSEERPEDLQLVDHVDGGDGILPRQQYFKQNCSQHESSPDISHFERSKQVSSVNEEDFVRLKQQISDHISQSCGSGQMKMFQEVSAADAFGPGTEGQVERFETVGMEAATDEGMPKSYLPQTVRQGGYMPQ
UniProt P08887, residues 20-468: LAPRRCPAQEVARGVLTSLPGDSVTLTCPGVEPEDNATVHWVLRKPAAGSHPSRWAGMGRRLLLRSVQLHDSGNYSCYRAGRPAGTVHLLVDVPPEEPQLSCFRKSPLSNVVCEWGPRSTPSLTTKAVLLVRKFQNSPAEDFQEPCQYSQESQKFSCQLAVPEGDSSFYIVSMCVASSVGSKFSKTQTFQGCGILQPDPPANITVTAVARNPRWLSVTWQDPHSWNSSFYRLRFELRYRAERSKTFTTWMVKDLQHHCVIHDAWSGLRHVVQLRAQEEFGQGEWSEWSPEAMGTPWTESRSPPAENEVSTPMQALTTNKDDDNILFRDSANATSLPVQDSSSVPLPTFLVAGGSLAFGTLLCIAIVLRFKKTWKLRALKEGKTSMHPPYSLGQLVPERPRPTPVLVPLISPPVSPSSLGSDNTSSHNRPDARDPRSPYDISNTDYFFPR

No constants are given. Whether binding was seen depends on the method and setting. Binding seen in cells or lysates may run through a third protein. Some results given as binding are weak or reduced against the parent protein; the word gives no strength. Tags and fused reporters may be left off the sequences shown.

The target in one assay is T1, GST-FBXO2 (UniProt Q9UK22).
T1 sequence: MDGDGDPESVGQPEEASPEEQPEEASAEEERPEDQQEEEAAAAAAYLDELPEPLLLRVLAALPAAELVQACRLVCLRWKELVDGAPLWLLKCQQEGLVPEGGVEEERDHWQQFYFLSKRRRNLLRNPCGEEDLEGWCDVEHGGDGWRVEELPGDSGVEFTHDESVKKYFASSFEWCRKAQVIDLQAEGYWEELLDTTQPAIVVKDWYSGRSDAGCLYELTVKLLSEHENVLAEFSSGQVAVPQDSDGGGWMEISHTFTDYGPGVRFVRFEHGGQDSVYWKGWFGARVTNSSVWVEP
In words: pull-down; GST or GST-FBXO2 on glutathione-Sepharose beads; reaction buffer 200 mM NaCl, 50 mM HEPES pH 7.5, 1 mM MgCl2, 0.2% Triton X-100, 0.2 mg/ml BSA; 1 mg Flag-IL6ST or Flag-IL6Ra-transfected cell lysate added, 1 h; immunoblot; only the target purified. (In general: A western blot detects proteins with antibodies after separation by electrophoresis.)

For the next assay, the target named is T2, Flag-FBXO2 WT (UniProt Q9UK22).
T2 sequence: T1 sequence
In words: co-IP; 293T cells transfected with EV, Flag-FBXO2 WT or MUT for 36 h; lysis buffer 150 mM Tris-HCl pH 7.5, 150 mM NaCl, 0.5% Nonidet P40; IP with Flag M2 beads overnight at 4 °C; blots for IL6Ra and IL6ST.

Regarding “Flag-IL6ST (from UniProt P40189 23-918) (receptor)”, the binding result with GST-FBXO2 is reported as “binds”. On to “Flag-IL6Ra (from UniProt P08887 20-468) (receptor)”, for which the binding entry with GST-FBXO2 is on record as “no binding”. Regarding “IL6ST (endogenous, 293T) (from UniProt P40189 23-918) (receptor)”, the binding entry with Flag-FBXO2 WT is listed as “binds”.
